Data from publication PMC12528448, “Resistance to CDK7 inhibitors directed by acquired mutation of a conserved residue in cancer cells” (The EMBO Journal, 2025).

Legend:
[1] = system: PolII CTD Ser5 and CDK2 Thr160 phosphorylation in 22Rv1 cells; experiment: Immunoblotting of CDK7 targets, 22Rv1; assay type: cell-based, human; settings: 22Rv1, 50nM SY1365, Vehicle = 1.00
MCF7 cells = experiment: Growth assay (SRB), MCF7; settings: biological reps, listed as SY1365
MCF7-CDK7-D97N cells = experiment: Growth assay (SRB), MCF7 CDK7-D97N knock-in; settings: MCF7 CDK7 D99N, 4 days, biological reps, listed as SY1365
[2] = system: PolII CTD Ser5 and CDK2 Thr160 phosphorylation in 22Rv1-SamR cells; experiment: Immunoblotting of CDK7 targets, 22Rv1-SamR; assay type: cell-based, human

## CN(C)C/C=C/C(=O)Nc1ccc(C(=O)N[C@@]2(C)CCC[C@@H](Nc3ncc(Cl)c(-c4c[nH]c5ccccc45)n3)C2)nc1 [SY-1365]
[1]
  Relative Density P-Ser2: 0.17 and 0.27
MCF7 cells; Log10 Conc. (nM) 0.09, 4 days
  % Growth: 20.98, 18.77, 40.32, 44.81%
MCF7 cells; Log10 Conc. (nM) 0.69, 4 days
  % Growth: 9.26, 3.41, 18.08, 20.14%
MCF7-CDK7-D97N cells; Log10 Conc. (nM) 0.09
  % Growth: 12.74, 2.52, 17.22, 21.23%
MCF7-CDK7-D97N cells; Log10 Conc. (nM) -0.52
  % Growth: 31.61, 15.96, 34.41, 34.30%
[2]; 5nM SY1365, Vehicle = 1.00
  Relative Density P-Ser2: 0.73, 0.16, 0.23
[2]; 50nM SY1365, Vehicle = 1.00
  Relative Density P-Ser2: 0.35, 0.08, 0.17

A number of entries come with more than one value. This is not the full list of results. There may be further records. Results that share an entry differ, and nothing given here explains why; they may come from other doses, times, organisms or constructs than stated.
